In US20250040546A1, “DETERGENT FOR VIRAL INACTIVATION” (Bristol-Myers Squibb Company, priority 2021, published 2025):
Some results were stated once for a whole list of compounds, not compound by compound. For some assays here: At least one compound was matched to its structure with a doubt left.

Columns and labels:
[1] = system: X-MuLV; assay: Detergent-mediated virus inactivation of X-MuLV in mAb1 harvest (pfu-based LRV); type: cell-based, Xenotropic Murine Leukemia Virus; details: 60 minutes hold at 2-8° C.
Procedure: Three lipid-enveloped viruses X-MuLV, HSV-1 and A-MuLV (Amphotropic Murine Leukemia Virus) were investigated for VI in the cell culture fluid of a monoclonal antibody (mAb1) and a fusion protein (Fus1) for a range of detergents and detergent concentrations (FIG. 6). Protein concentration and buffer matrix were dictated by that in the harvest for the specific therapeutic and process. A temperature of 2-8° C. was used as a worst case for inactivation and incubation times of 0, 5 and 60 minutes were used to explore the kinetics of inactivation. Viral clearance was measured in units of Log Reduction Value (LRV) which was calculated from pfu (Plaque Forming Units) as follows
Virus inactivation studies were conducted for X-MuLV in mAb1 harvest, HSV-1 and A-MuLV in Fus1 harvest at 0, 5 and 60 minutes at 2-8° C. The inactivation studies for each condition were conducted in duplicates with results varying within 0.5 LRV. The lower of the two LRVS was plotted in FIG. 6 to remain conservative regarding the extent of inactivation. The error bars represent the assay variability.
The mechanism of detergent-mediated VI can share similarities with pH-mediated VI and is likely a characteristic of the detergent-protein-virus system under consideration. Detergents could unfold or denature specific viral surface glycoproteins that are critical for the host cell infection as is the case for X-MuLV [Brorson et al. (2003) Biotechnology and Bioengineering 82(3):321-329; Simons & Ehehalt (2002) Journal of Clinical Investigation 110(5):597-603]. Alternately, detergents could inactivate viruses such as HSV-1 through dissolution of the viral lipid envelope or preferential partitioning of the membrane protein into detergent micelles [Welling-Wester et al. (1998) Journal of chromatography A 816(1):29-37]. Three lipid-enveloped viruses commonly used for viral validation studies, X-MuLV, HSV-1 and A-MuLV (Amphotropic Murine Leukemia Virus), were investigated for VI. Any VI condition showing LRV ≥4.0 after a 60 minute hold at 2-8° C., worst case temperature for VI, was considered effective. […]

[2] = system: HSV-1; assay: Example 2 viral inactivation evaluation, HSV-1 spiked abatacept harvest; type: cell-based, herpes simplex virus type 1; details: 60 minutes of incubation, detergent at 26.9×CMC
[3] = system: A-MuLV; assay: Example 2 viral inactivation evaluation, A-MuLV spiked abatacept harvest; type: cell-based, amphotrophic murine leukemia virus; details: 60 minutes of incubation, detergent at 26.9×CMC
[4] = all (high and low) concentrations tested

CCCCCCCCCCCC[N+](C)(C)CCCS(=O)(=O)[O-] [Zwittergent 3-12] was tested, and the “Log reduction value (LRV) of X-MuLV” value [1, 4] was “Greater than 4.0 LRV”.
For CCCCCCCCO[C@@H]1O[C@H](CO)[C@@H](O)[C@H](O)[C@H]1O [OG, n-Octyl-β-D-Glucopyranoside], the “Log reduction value (LRV) of X-MuLV” value [1, 4] was “Greater than 4.0 LRV”.
In the case of Triton X-100, the “LRV of HSV-1” value [2] is reported as ≥ 4 LRV and the “LRV of A-MuLV” value [3] is reported as ≥ 4 LRV.
For CCCCCCCCCCO[C@@H]1O[C@H](CO)[C@@H](O[C@H]2O[C@H](CO)[C@@H](O)[C@H](O)[C@H]2O)[C@H](O)[C@H]1O [DDM, n-Dodecyl-β-D-Maltopyranoside], the “Log reduction value (LRV) of X-MuLV” value ([1]; detergent at 1×CMC) was “less than 1.0 LRV”.
